Data taken from ChEMBL document CHEMBL3988442, “University of Dundee, Small-Polar-MMV Screening Library” (2021).

By UniProt entry, the sequences of proteins in these tests, tags left out.
UniProt E9BF75, entry or part of it: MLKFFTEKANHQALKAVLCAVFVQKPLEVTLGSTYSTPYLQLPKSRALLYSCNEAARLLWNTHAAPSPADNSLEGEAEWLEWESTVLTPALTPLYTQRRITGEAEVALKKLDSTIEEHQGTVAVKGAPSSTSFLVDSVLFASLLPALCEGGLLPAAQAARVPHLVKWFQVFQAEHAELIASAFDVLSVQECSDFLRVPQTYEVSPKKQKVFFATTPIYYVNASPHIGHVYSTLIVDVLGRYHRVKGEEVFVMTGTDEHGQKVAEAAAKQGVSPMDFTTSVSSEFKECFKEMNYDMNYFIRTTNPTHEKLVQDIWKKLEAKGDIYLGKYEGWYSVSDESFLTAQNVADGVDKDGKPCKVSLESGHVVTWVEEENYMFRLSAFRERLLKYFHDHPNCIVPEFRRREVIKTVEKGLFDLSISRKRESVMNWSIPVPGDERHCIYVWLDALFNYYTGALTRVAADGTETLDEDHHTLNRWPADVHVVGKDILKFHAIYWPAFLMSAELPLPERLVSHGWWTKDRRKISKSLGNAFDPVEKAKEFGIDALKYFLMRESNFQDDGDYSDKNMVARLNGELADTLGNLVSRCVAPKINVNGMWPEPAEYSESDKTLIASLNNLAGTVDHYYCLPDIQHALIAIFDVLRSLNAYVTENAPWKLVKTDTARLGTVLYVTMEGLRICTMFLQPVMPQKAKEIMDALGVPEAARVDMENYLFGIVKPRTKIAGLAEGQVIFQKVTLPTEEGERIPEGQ

All values are in %. The record does not define 0% and 100%; most values in the screen are far below 50% and negative numbers occur (in some assays of this library far below -100). This is an unselected part of the compounds tested. A dash means the value is not listed here; it may have been measured.

A: 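Primary screen of methionyl-tRNA synthetase; the read-out is not stated. Target: Methionyl-tRNA synthetase (putative), Leishmania donovani (UniProt E9BF75). The test concentration is not given. Values are per cent inhibition. Of about 68,000 compounds tested this way, about 24 (0.035%) reached 50% or more in at least one test.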
B: 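Assay on Mycobacterium tuberculosis, filed only as a heat shock assay from Cornell; the read-out is not stated. The concentration is filed as 10 mM, unlikely as a test dose, so the dose is not known. Higher reads as stronger inhibition (inferred: compounds with an IC50 in retests scored well above the rest). Of about 69,000 compounds tested this way, about 930 (1.4%) reached 50% or more in at least one test.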

SMILES | A | B
[H][C@@]12C[C@H](C(=O)Nc3cccnc3)[C@@]([H])(CN(S(=O)(=O)CCC)C1)O2 | - | -5.303%
COCCCN1CCCC12CCN(c1ncccn1)CC2.O=C(O)C(F)(F)F | - | -7.362%
CCN1CCN(C[C@@H]2CN(c3ncccc3Cl)C[C@@H]2CO)CC1 | 4.194% | -12.23%
CCc1nc(NC(=O)NCCc2scnc2C)nn1C | 5.208% | 0.7113%
[H][C@@]12CCN(CCOC)C[C@@]1([H])[C@H](C(=O)Nc1cccnc1)CCO2 | - | -10.55%
CCN(C(=O)COC)C(c1ccc(Cl)cc1)c1ccccn1 (stereo not drawn) | 7.606% | -13.54%
CC(C)CCC(=O)N1CCCC2(CCN(Cc3ccccc3C#N)C2)C1 (stereo not drawn) | 18.61% | 17.65%
Cc1cccnc1NC(=O)NC(C)Cn1cccn1 (stereo not drawn) | 4.453% | 4.759%
CO[C@@H]1CC[C@H]2[C@H]1OCCN2CC1CC1 | 4.192% | -
COCCn1ccc(=O)c(OCC(=O)Nc2cccc(OC)c2)c1C | 8.01% | 10.27%
CCN1CCN(C2CCN(Cc3noc(C4CC4)n3)CC2)C1=O | 13.8% | -3.106%
Fc1cc(Cl)cnc1N1CCCC(c2nccn2Cc2ccccn2)C1 (stereo not drawn) | 5.994% | 7.318%
CNC(=O)NC(=O)CCSc1ccccc1C | 7.419% | 10.97%
Cc1nn(C)c2c(NC3CCCC3)nc(C3CC3)nc12 | 11.67% | 26.38%
Cc1ncsc1CN1CCn2c(COc3cccnc3)cnc2C1C.O=C(O)C(F)(F)F.O=C(O)C(F)(F)F (stereo not drawn) | - | -18.24%
CN(C)S(=O)(=O)N1CCOC(c2cccc(-c3cncnc3)n2)C1 (stereo not drawn) | 11.05% | -3.532%
CNC(=O)C1CCCCN1C(=O)C1CCN(S(C)(=O)=O)CC1 (stereo not drawn) | -2.957% | 0.5687%
CCc1cnc(CN(C)C2CCN(CC(=O)Nc3nccs3)C2)o1 (stereo not drawn) | -18.87% | 61.16%
O=C([C@H]1C[C@@H]2CN(c3ncc(F)cn3)C[C@H]1O2)N1CCCC1 | 10.56% | -
CN(C)C(=O)N1CC[C@@H](c2ccc3ccccc3c2)[C@H](O)C1 | 1.37% | -20.46%
COCCNC(=O)Nc1ccc(-c2nc(C(C)C)no2)cc1 | 8.964% | -14.04%
COC(=O)c1cc(OC)ccc1NCC(=O)NCC(=O)N1CCCC1 | 10.59% | 2.215%
CC1c2ncc(CNC(=O)C3CC3)n2CCN1CC1CCC1.O=C(O)C(F)(F)F (stereo not drawn) | - | -0.1216%
COc1ccc(C(CNC(=O)Nc2cc(C)nn2C)N(C)C)cc1 (stereo not drawn) | 14.21% | -4.948%
COCC(=O)N1CCN(C(=O)C2CCCCC2)[C@@H](C(=O)OC)C1 | 6.767% | 0.2366%
COC1CCCN(C(=O)c2sc(CC(C)C)nc2C)C1 (stereo not drawn) | 9.749% | 5.259%
CNc1cccc(C2CCCN(C(=O)Cc3ccccc3)C2)n1 (stereo not drawn) | 12.43% | -17.66%
COC1CN(C(=O)Cc2cccs2)CCC(=O)N(C)c2ccccc21 (stereo not drawn) | 10.68% | 24.34%
CCCc1nnsc1C(=O)N1CCCC1(C)C(=O)N1CCOCC1 (stereo not drawn) | 5.319% | -4.41%
CC(=O)N1CCC(c2nc3ccc(C)cn3n2)CC1 | 2.747% | 24%
Cc1cnc(N2CCc3c(CNc4ccnc(C)n4)cncc3C2)nc1.Cl | - | 12.07%
Clc1cc(N2CCN3CCCCC3C2)nc2[nH]ccc12 (stereo not drawn) | 23.99% | 0.3119%
CCS(=O)(=O)N1CCC(CSc2ccccc2)C1 (stereo not drawn) | 16.67% | 18.57%
Nc1ncc(-c2ccc(Cl)cc2)c(C2CCCNC2)n1 (stereo not drawn) | 5.346% | -24.41%
CN(C)C(=O)c1cccc(NC(=O)c2cnn(C)c2)c1 | 21.04% | 3.682%
CNC(=O)[C@@H]1C[C@H](N)CN1S(=O)(=O)c1cc(C)c(Cl)cc1C | 10.13% | 8.707%
Cc1ccc(C(=O)N2CCN3C[C@H](Oc4cncnc4)C[C@H]3C2)cn1 | 14.66% | -
CCc1nc(NC2CC(=O)N(CC3CCCCC3)C2)ncc1C (stereo not drawn) | 11.76% | -26.5%
CCN1C[C@H]2C[C@H](C(=O)Nc3ccccc3)[C@@H](C1)O2 | 11.94% | -
COc1ccc(-n2nc(C3CC3)nc2CCn2cnnn2)cc1 | 13.24% | 2.92%
Cc1nc(N2CCN(c3ccccc3)CC2)c2c(n1)c(C)nn2C | 19.35% | -7.995%
O=C(NCCOc1ccc(F)c(F)c1)NCc1cccc(CO)c1 | 9.783% | -8.708%
CC(C)Cc1nnc(SCC(=O)O)n1-c1ccc(F)cc1F | 0.4819% | 22.3%
CCS(=O)(=O)N1CCC(Oc2ccc(C#N)cc2)CC1 | 2.73% | -13.96%
Cn1cc(N2CCCC(NCc3cccc4c3OCCCO4)C2)cn1 (stereo not drawn) | 7.843% | 3.801%
Cc1nc(N2CCN(C(=O)c3ccccc3)CC2)c2cnn(C)c2n1 | 20.56% | 0.4007%
N#Cc1cc(F)ccc1NCC1CCN(S(=O)(=O)C(F)F)CC1 | 4.969% | -21.75%
COc1ccc(C2(C(=O)NCc3c(C)ncc4c3CCNC4)CC2)cc1 | 9.487% | -16.59%
CCCOC1CCCN(c2ccnc(C(=O)NCc3ccco3)c2)C1 (stereo not drawn) | 16.03% | 56.57%
CCCN1CCC2(C1)c1ccccc1S(=O)(=O)N2Cc1ccccc1 (stereo not drawn) | 14.79% | -
[H][C@]12CC[C@]([H])(CN(c3ncccn3)C1)N(C(=O)CSc1nc(C)n[nH]1)C2 | - | -18.58%
Cn1nc(CNC(=O)c2ccc(OC(F)(F)F)cc2)c2c1CCOC2 | 11.7% | -19.12%
Cc1cccc(NC(=O)[C@@H]2CCCN2Cc2ccccc2C#N)n1 | 18.04% | -26.51%
Cc1cc(CN2CCCC2c2noc(C3CC3)n2)c2ccccc2n1 (stereo not drawn) | 15.56% | 31.64%
Cc1cc(C)c2nc(CN3CCC(N4CCOCC4)CC3)cc(O)c2c1 | 14.29% | 20.25%
CCc1ccc(CN2CCc3ncnc(-c4cccnc4)c3CC2)o1 | 4.061% | -
Cc1csc(CN2C[C@@H]3CN(S(C)(=O)=O)CCO[C@@H]3C2)n1 | 11.2% | -
CCc1nc(C)c(C(=O)NCCNC(=O)Cc2cccc(F)c2)s1 | 15.64% | -7.043%
O=c1cc(-c2ccncc2)nc(-c2ccc(CN3CC[C@@H](O)C3)cc2)[nH]1 | -1.676% | 9.659%
Cc1nc(C2(NCC(=O)NC(=O)Nc3ccccc3)CCCCC2)no1 | 19.15% | 14.41%
COc1ccc(CNCc2ccnc(N3CCCCC3)c2)cc1OC | 3.067% | -27.3%
CN(Cc1ccccc1)CC(O)Cn1cnc2sccc2c1=O (stereo not drawn) | 19.2% | 2.941%

Some entries from above, unchanged:

* COC(=O)c1cc(OC)ccc1NCC(=O)NCC(=O)N1CCCC1 | A: 10.59%; B: 2.215%
* CCc1nc(NC(=O)NCCc2scnc2C)nn1C | A: 5.208%; B: 0.7113%
* Clc1cc(N2CCN3CCCCC3C2)nc2[nH]ccc12 (stereo not drawn) | A: 23.99%; B: 0.3119%
* CNC(=O)C1CCCCN1C(=O)C1CCN(S(C)(=O)=O)CC1 (stereo not drawn) | A: -2.957%; B: 0.5687%